# Results: PubChem BioAssay AID504834 (National Center for Advancing Translational Sciences (NCATS), 2011)
# Hit rate of the full screen: of about 320,000 compounds, about 22,000 (6.9%) were called active. The shares of active, inactive and inconclusive entries below differ from those in the screen. Calls come from the whole dose curve; as a rule, active = well fitted inhibition curve with a large enough effect; inconclusive = small, poorly fitted or top-dose-only effect, or another doubt; inactive = no such curve, though single readings can be large or run the other way. Where the call is inconclusive, the potency comes from a doubtful curve fit.
# Assay: Primary qHTS for delayed death inhibitors of the malarial parasite plastid, 96 hour incubation
# Settings: P. falciparum luciferase reporter growth; series mostly up to 28.7 µM; activity change, negative = inhibition: at the top concentration
# Outline: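 Infected RBCs, 2% Hct / 0.05% parasitemia final; luciferase-reporter P. falciparum; cpd 96 h, 37 C, 5% CO2; luciferase detection reagent; luminescence.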
# % is set by controls: 0 for no effect and ±100 for the full control effect; potency is the fitted concentration of half-maximal effect.
SMILES,Potency,"activity change, negative = inhibition"
COc1ccc(CN2CCc3c([nH]c4ccccc34)C2)c(OC)c1C,"inconclusive: 18.5 µM [inhibitor, single point]",–
O=C(CCn1cccc1)NC1CCCc2ccccc21 (configuration not stated),active: 6.57 µM,–
CCc1ccc2[nH]c3nc(SCc4nnc(-c5ccccc5)o4)nnc3c2c1,"inconclusive: 13.1 µM [inhibitor, single point]",–
Cc1ccc(S(=O)(=O)c2ncccc2[N+](=O)[O-])cc1,"inconclusive: 13.1 µM [inhibitor, partial curve, poor fit]",–
CCc1ccc(NC(=O)C2CCN(S(=O)(=O)c3ccc4c(c3)CC(C)N4C(C)=O)CC2)cc1 (configuration not stated),"inconclusive: 10.4 µM [inhibitor, single point]",–
Cc1ccc(NS(=O)(=O)c2ccc3c(c2)C(=O)c2ccccc2C3=O)c(C)c1,"inconclusive: 2.08 µM [inhibitor, partial curve, poor fit]",–
CC(=O)Nc1ccc(S(=O)(=O)NNC(=O)c2cccc(Cl)c2)cc1,"inconclusive: 4.15 µM [inhibitor, single point]",–
O=C(CCCCCNC(=S)Nc1ccc(Cl)cc1)C[N+](=O)[O-],–,inactive: -23.2%
O=C(CNC(=O)c1cccnc1)N=Nc1c(O)[nH]c2c(Br)cc(Br)cc12,–,inactive: 22.3%
C/C(=N\NC(=O)C(=O)Nc1c(C)n(C)n(-c2ccccc2)c1=O)c1ccncc1,–,inactive: 34.7%
Cc1ccc(NS(=O)(=O)c2cccc(C(=O)N3CCN(c4ncccn4)CC3)c2)cc1,"inconclusive: 11.7 µM [inhibitor, single point]",–
COc1cc(CNn2c(C)n[nH]c2=S)cc(Cl)c1OCc1ccc(F)cc1,"inconclusive: 9.28 µM [inhibitor, single point]",–
COc1ccc(C2CC(=O)C(C=NCCO)=C(O)C2)cc1 (configuration not stated),–,inactive: 33.6%
CN(C(=O)c1ccc(S(=O)(=O)N2CCCC2)cc1)C1CCCCC1,"inconclusive: 10.4 µM [inhibitor, partial curve, poor fit]",–
CCN1CCN(Cc2ccc(NC(=O)c3cc(NC(=O)c4cc5cccc(OC)c5o4)cc(OC)c3)cc2C(F)(F)F)CC1,active: 0.294 µM,–
Cc1cccc(N2CCN(C(=O)CCNS(=O)(=O)c3ccc4c(c3)oc(=O)n4C)CC2C)c1 (configuration not stated),"inconclusive: 18.5 µM [inhibitor, single point]",–
Brc1ccccc1CN1CCC(Cc2ccccc2)CC1,"inconclusive: 18.5 µM [inhibitor, single point]",–
Cc1cccc(N2CCN(S(=O)(=O)c3c(C)[nH]c(C)c3C(=O)N3CCCC3)CC2C)c1 (configuration not stated),"inconclusive: 18.5 µM [inhibitor, single point]",–
CC1SC2(NC1=O)C1CC3CC(C1)CC2C3 (configuration not stated),"inconclusive: 18.5 µM [inhibitor, single point]",–
CC(=O)Nc1ccc(S(=O)(=O)Nc2nc3ccccc3nc2Nc2ccc3ccccc3c2)cc1,"inconclusive: 18.5 µM [inhibitor, single point]",–
Cc1cc(NC(=O)CCC2COc3ccccc3O2)no1 (configuration not stated),"inconclusive: 0.147 µM [inhibitor, full curve, poor fit]",–
O=C1CCC(C(=O)Nc2ccccc2)N1 (configuration not stated),"inconclusive: 6.57 µM [inhibitor, partial curve, poor fit]",–
COc1ccc(Cl)cc1NC(=O)c1cc(S(=O)(=O)N2CCCC2)cn1C,–,inactive: 29.9%

# Quoted from the listing for reference:
SMILES,Potency,"activity change, negative = inhibition"
Cc1ccc(S(=O)(=O)c2ncccc2[N+](=O)[O-])cc1,"inconclusive: 13.1 µM [inhibitor, partial curve, poor fit]",–
CCc1ccc(NC(=O)C2CCN(S(=O)(=O)c3ccc4c(c3)CC(C)N4C(C)=O)CC2)cc1 (configuration not stated),"inconclusive: 10.4 µM [inhibitor, single point]",–
Cc1ccc(NS(=O)(=O)c2ccc3c(c2)C(=O)c2ccccc2C3=O)c(C)c1,"inconclusive: 2.08 µM [inhibitor, partial curve, poor fit]",–
CC(=O)Nc1ccc(S(=O)(=O)NNC(=O)c2cccc(Cl)c2)cc1,"inconclusive: 4.15 µM [inhibitor, single point]",–

# (continued)

SMILES,Potency,"activity change, negative = inhibition"
N/C(=N\OC(=O)CCCOc1ccccc1)c1cccc([N+](=O)[O-])c1,"inconclusive: 0.37 µM [inhibitor, partial curve, poor fit]",–
CC(Sc1nc(NC(C)(C)C)nc(N(C)C)n1)C(=O)Nc1ccccc1 (configuration not stated),"inconclusive: 9.28 µM [inhibitor, single point]",–
COc1cccc(C(C(=O)NC(C)(C)C)N(CC(C)C)C(=O)CCC(=O)Nc2cc(C)on2)c1OC (configuration not stated),–,inactive: 22.7%
COc1cc(C(=O)NCc2ccc(C(=O)NCC(OC)OC)cc2)cc(OC)c1OC,"inconclusive: 3.29 µM [inhibitor, partial curve, poor fit]",–
O=c1[nH]c(/C=C/c2ccc(Br)cc2)nc2ccccc12,–,inactive: 0%
COc1cccc(NC(=O)c2ccc3c(c2)CCCC3)c1,–,inactive: 311%
C=CCn1c(-c2cccc(OC)c2)n[nH]c1=S,–,inactive: 39.7%
CCOC(=O)c1c(NC(=O)C[n+]2ccc(Cc3ccccc3)cc2)sc(C)c1C,–,inactive: 0%
CCOC(=O)c1[nH]c2ccc(Cl)cc2c1NC(=O)c1nonc1C,–,inactive: 74.1%
O=C(O)C1CC1C(=O)Nc1cc(F)ccc1F (configuration not stated),–,inactive: -0.567%
CCOC(=O)C1CCN(C(=O)c2cccc(N3C(=O)NC4CC3(C)Oc3ccc(C)cc34)c2)CC1 (configuration not stated),"inconclusive: 18.5 µM [inhibitor, partial curve, poor fit]",–
COc1ccc(NC(=O)Cn2nnc(C(=O)NCc3ccccc3OC)c2N)cc1Cl,"inconclusive: 8.28 µM [inhibitor, partial curve]",–
S=C(NCc1ccccc1)NCc1ccc(Cl)cc1,"inconclusive: 18.5 µM [inhibitor, single point]",–
COc1cc(-c2nnc(COC(=O)c3c4c(nc5ccccc35)CCCC4)o2)cc(OC)c1OC,"inconclusive: 2.62 µM [inhibitor, full curve, poor fit]",–
COc1cccc(NC(=O)c2ccc3c(c2)OCCO3)c1,"inconclusive: 5.22 µM [inhibitor, partial curve, poor fit]",–
COc1ccc(CC(=O)NNC(=O)CSc2nnc(Cc3ccc(OC)cc3)n2-c2ccccc2)cc1,–,inactive: 5.28%
Cc1ccc(S(=O)(=O)N2CCC(C(=O)NNC(=O)C3CC3)CC2)cc1Cl,"inconclusive: 18.5 µM [inhibitor, single point]",–
CCOC(=O)C(C)Sc1nc(-c2ccccc2)nc2ccc(F)cc12 (configuration not stated),"inconclusive: 18.5 µM [inhibitor, single point]",–
Cc1cc(C(F)(F)F)nc(NCc2ccc(F)cc2)n1,"inconclusive: 10.4 µM [inhibitor, partial curve]",–
COc1ccc(Cl)cc1NC(=O)CN1CCC(n2nnc3ccccc32)CC1,–,inactive: 4.28%
CSCCC(NS(=O)(=O)c1ccc(C)cc1)C(=O)N1CCCCCCC1 (configuration not stated),"inconclusive: 13.1 µM [inhibitor, partial curve, poor fit]",–
CCCCCOc1ccc(Br)cc1CSC(=N)N,"inconclusive: 4.15 µM [inhibitor, partial curve, poor fit]",–
COc1cc(SC)ccc1C(=O)OC1CCOC1=O (configuration not stated),"inconclusive: 0.0026 µM [inhibitor, full curve, poor fit]",–

SMILES,Potency,"activity change, negative = inhibition"
CCC(=O)c1ccc(OCC(=O)NC2CCCC2)cc1,–,inactive: -16.4%
CN(Cc1ccc(OC(F)F)cc1)C(=O)C1CCN(S(=O)(=O)c2ccc3c(c2)OCCO3)CC1,"inconclusive: 8.28 µM [inhibitor, partial curve, poor fit]",–
CC(C)[C@H]1CN=C2N(C[C@H](C)NC(=O)CCC3CCCCC3)[C@H](Cc3ccc(O)cc3)CN21,active: 4.15 µM,–
CC(C)Cn1c(=O)c2c(nc3n2CCCN3Cc2ccccc2)n(C)c1=O,active: 11.7 µM,–
O=C(Cn1cnc2ccccc21)N/N=C/c1cccs1,–,inactive: -3.73%
CC(C)[C@H](NC(=O)C1CCN(S(=O)(=O)c2ccccc2)CC1)C(=O)NCc1ccncc1,"inconclusive: 18.5 µM [inhibitor, single point]",–
CCN(C(=O)CCS(=O)(=O)c1cccc2nonc12)c1ccc(C)c(C)c1,"inconclusive: 1.17 µM [inhibitor, full curve, poor fit]",–
CCc1noc(C)c1C(=O)N1CCSC1=Nc1cccc(Cl)c1C,active: 2.94 µM,–
O=C(c1ccccc1)c1nn(-c2ccc(Cl)cc2)c(=O)cc1C(F)(F)F,"inconclusive: 1.17 µM [inhibitor, partial curve, poor fit]",–
CCc1cc(=O)oc2cc(C)cc(OCC(=O)N3CCC(C(=O)O)(c4ccccc4)CC3)c12,"inconclusive: 13.1 µM [inhibitor, partial curve]",–
CCOCCCNC(=O)NC12CC3CC(CC(C3)C1)C2,–,inactive: -2.01%
Cc1ccc(C(=O)NCCSc2c(C)[nH]c3ccccc23)cc1[N+](=O)[O-],"inconclusive: 18.5 µM [inhibitor, single point]",–
Cc1ccc(C(=O)OCC(=O)c2c[nH]c3ccccc23)cc1S(=O)(=O)N1CCCCC1,"inconclusive: 18.5 µM [inhibitor, single point]",–
CCOC(=O)c1cc2c(C)nn(-c3ccccc3)c2s1,"inconclusive: 9.28 µM [inhibitor, single point]",–
COc1ccc(C2=NOC(C(=O)Nc3ccc4c(c3)OCCO4)C2)c(OC)c1 (configuration not stated),"inconclusive: 4.65 µM [inhibitor, partial curve, poor fit]",–
COCCN(C(=O)c1ccccc1F)c1nnc(-c2ccc(OC)cc2)s1,"inconclusive: 18.5 µM [inhibitor, single point]",–
O=C(NNC(=S)Nc1ccc(Cl)cc1)c1ccccc1OC(F)F,"inconclusive: 2.08 µM [inhibitor, partial curve, poor fit]",–
Cc1oc2c(C)c3oc(=O)c(CCC(=O)NCCCn4ccnc4)c(C)c3cc2c1C,"inconclusive: 18.5 µM [inhibitor, single point]",–
CCN1CCN(c2ccc([N+](=O)[O-])cc2C(=O)c2ccc(Cl)cc2)CC1,"inconclusive: 16.5 µM [inhibitor, partial curve, poor fit]",–
Cc1cccc(NC(=O)Cn2cnc3c(oc4nc5c(cc43)COC(C)(C)C5)c2=O)c1,–,inactive: 0%
CC(=O)Nc1c2c(nn1-c1ccccc1)CS(=O)C2 (configuration not stated),–,inactive: 30.7%
